Experimental data taken from the supplement of paper PMC12067093, “Discovery and optimisation of a covalent ligand for TRIM25 and its application to targeted protein ubiquitination” (Chemical Science, 2025).
The list shows a part of the results.

Compound: CC1Cc2ccccc2N1C(=O)C1CCCN(C1)C(=O)CCl (mixture of isomers) [TRIM25 ligand 11 (diastereomer mixture)]
Test: probe-labelled cysteine peptide fold change vs DMSO (competition) (log2 fold change); higher = less target engagement (more negative = stronger competition)
Conditions: THP-1, incubation time: 4 h
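Also: competitive chemoproteomic profiling in live THP-1 cells with an iodoacetamide desthiobiotin (IA-DTB) probe, comparing probe-labelled peptide intensities in compound-treated cells against DMSO-treated controls.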

Target | probe-labelled cysteine peptide fold change (10 µM) | probe-labelled cysteine peptide fold change (50 µM)
NBAS_A2RRP1_1771_LQYYFTLLENCGCADLGNCAIKPETHIR (UniProt A2RRP1) | 0.138 | -0.11
NAT1_P18440_233_SFCSLQTPDGVHCLVGFTLTHR (UniProt P18440) | -0.122 | -0.0243
NCAPG_Q9BPX3_843_ICNEILTSPCSPEIR (UniProt Q9BPX3) | 0.015 | -0.0965
NASP_P49321_708_KPTDGASSSNCVTDISHLVR (UniProt P49321) | 0.0324 | -0.0746
NCAPH2_Q6IBW4_535_FPQLNEWCPFAELVAGQPAFEVCR (UniProt Q6IBW4) | -0.0435 | -0.0913
MYO1C_O00159_802_CPENAFFLDHVR (UniProt O00159) | 0.0648 | 0.2
NCAPH2_Q6IBW4_230_DTGRTEEQPMEVSVCR (UniProt Q6IBW4) | -0.148 | -0.383
NAA15_Q9BXJ9_214_EALEHLCTYEK (UniProt Q9BXJ9) | 0.152 | 0.117
MYO1G_B0I1T2_97_DTCIVISGESGAGK (UniProt B0I1T2) | 0.0799 | 0.138
NCBP1_Q09161_320_FVIEENLHCIIK (UniProt Q09161) | 0.0474 | 0.0657
NCAPD2_Q15021_767_VACCPLER (UniProt Q15021) | -0.0782 | -0.475
NACC1_Q96RE7_464_ESEMNAIAADMCTNAR (UniProt Q96RE7) | 0.11 | 0.383
NADK_O95544_69_SLHGPCPVTTFGPK (UniProt O95544) | 0.0566 | -0.0588
MYO9B_Q13459_1876_ITTCVEMLIK (UniProt Q13459) | -0.198 | 0.00162
MYO1F_O00160_788_CVYVIGR (UniProt O00160) | -0.13 | -0.058
MYO6_Q9UM54_1102_DTINTSCDIELLAACREEFHR (UniProt Q9UM54) | -0.204 | -0.185
NAPRT_Q6XQN6_254_AQVWLEQVCAHLGLGVQEPHPGER (UniProt Q6XQN6) | -0.0437 | 0.0555
NBEAL2_Q6ZNJ1_1619_REEACYVLSK (UniProt Q6ZNJ1) | 0.0423 | 0.00413

Looked up one by one from the list above (2):
Target | probe-labelled cysteine peptide fold change (10 µM) | probe-labelled cysteine peptide fold change (50 µM)
MYO1C_O00159_802_CPENAFFLDHVR (UniProt O00159) | 0.0648 | 0.2
NCAPH2_Q6IBW4_535_FPQLNEWCPFAELVAGQPAFEVCR (UniProt Q6IBW4) | -0.0435 | -0.0913
